Data on 26 targets can be found in the supplement of paper PMC10849652.

Amino acid sequences for entries named in this document (tags omitted). A change or cut given only in a name is not applied to a line headed by its entry.
UniProt Q9C0H5: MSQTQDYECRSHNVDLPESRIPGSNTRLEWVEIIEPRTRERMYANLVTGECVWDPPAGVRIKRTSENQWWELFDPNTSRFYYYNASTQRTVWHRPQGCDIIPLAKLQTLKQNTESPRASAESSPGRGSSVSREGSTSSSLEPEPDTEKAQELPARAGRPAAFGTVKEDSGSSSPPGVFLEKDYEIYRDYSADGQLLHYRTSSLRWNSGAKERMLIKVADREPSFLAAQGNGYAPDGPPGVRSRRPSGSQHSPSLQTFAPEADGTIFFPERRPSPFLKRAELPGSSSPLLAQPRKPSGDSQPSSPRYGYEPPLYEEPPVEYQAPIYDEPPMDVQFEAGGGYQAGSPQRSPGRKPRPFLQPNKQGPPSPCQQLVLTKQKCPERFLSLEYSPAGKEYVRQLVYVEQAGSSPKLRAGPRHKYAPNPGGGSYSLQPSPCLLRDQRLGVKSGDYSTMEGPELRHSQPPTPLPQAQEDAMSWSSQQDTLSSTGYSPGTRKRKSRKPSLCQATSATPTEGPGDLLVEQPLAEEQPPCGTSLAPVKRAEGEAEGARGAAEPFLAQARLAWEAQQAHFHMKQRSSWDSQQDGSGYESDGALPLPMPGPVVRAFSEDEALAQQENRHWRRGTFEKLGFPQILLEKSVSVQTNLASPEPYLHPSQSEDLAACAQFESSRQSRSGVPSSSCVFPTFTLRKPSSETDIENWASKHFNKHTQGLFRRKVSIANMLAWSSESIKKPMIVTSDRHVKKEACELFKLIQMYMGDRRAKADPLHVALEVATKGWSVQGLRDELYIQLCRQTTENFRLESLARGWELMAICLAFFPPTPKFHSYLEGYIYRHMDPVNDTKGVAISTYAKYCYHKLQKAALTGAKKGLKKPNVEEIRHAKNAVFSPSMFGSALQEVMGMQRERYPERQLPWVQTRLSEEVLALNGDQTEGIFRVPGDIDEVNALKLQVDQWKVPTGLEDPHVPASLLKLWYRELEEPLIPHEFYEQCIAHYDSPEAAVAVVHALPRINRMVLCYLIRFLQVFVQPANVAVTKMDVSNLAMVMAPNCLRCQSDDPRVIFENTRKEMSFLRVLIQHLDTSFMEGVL
UniProt Q9P2N2: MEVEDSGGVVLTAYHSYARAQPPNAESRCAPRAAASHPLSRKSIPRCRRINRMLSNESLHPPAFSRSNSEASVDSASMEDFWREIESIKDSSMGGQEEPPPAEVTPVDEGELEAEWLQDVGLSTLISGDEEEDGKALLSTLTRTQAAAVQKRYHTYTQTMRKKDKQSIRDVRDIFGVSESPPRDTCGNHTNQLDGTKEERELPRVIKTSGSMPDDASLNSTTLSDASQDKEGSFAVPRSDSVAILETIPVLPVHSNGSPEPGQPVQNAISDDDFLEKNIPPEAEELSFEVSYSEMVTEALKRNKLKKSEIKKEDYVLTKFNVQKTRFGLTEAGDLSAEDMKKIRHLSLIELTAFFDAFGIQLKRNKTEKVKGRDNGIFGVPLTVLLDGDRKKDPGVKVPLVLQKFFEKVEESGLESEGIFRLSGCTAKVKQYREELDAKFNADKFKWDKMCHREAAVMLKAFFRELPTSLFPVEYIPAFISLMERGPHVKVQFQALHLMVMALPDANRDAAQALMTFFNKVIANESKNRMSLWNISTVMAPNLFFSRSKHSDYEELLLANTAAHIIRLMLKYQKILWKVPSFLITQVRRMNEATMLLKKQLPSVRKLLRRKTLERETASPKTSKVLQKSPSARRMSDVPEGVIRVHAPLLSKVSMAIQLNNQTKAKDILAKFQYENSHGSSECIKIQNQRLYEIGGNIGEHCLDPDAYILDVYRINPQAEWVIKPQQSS
UniProt O14791: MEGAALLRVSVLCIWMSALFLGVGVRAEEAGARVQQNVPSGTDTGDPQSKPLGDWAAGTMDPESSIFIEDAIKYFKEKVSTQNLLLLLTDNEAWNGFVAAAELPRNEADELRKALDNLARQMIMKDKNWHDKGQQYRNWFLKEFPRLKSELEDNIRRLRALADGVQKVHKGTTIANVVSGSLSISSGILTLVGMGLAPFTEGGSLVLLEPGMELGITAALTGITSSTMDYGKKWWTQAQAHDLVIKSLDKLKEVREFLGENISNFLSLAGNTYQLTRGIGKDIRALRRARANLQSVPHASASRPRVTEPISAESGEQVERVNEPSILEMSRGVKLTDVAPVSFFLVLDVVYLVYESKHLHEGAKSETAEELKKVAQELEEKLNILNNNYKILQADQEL
UniProt Q9H0F7: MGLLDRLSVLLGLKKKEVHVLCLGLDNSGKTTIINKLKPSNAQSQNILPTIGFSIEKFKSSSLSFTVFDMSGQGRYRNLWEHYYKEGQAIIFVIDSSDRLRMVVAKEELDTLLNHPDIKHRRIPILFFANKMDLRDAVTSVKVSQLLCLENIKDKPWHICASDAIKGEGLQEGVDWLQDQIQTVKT
UniProt Q9NZN5: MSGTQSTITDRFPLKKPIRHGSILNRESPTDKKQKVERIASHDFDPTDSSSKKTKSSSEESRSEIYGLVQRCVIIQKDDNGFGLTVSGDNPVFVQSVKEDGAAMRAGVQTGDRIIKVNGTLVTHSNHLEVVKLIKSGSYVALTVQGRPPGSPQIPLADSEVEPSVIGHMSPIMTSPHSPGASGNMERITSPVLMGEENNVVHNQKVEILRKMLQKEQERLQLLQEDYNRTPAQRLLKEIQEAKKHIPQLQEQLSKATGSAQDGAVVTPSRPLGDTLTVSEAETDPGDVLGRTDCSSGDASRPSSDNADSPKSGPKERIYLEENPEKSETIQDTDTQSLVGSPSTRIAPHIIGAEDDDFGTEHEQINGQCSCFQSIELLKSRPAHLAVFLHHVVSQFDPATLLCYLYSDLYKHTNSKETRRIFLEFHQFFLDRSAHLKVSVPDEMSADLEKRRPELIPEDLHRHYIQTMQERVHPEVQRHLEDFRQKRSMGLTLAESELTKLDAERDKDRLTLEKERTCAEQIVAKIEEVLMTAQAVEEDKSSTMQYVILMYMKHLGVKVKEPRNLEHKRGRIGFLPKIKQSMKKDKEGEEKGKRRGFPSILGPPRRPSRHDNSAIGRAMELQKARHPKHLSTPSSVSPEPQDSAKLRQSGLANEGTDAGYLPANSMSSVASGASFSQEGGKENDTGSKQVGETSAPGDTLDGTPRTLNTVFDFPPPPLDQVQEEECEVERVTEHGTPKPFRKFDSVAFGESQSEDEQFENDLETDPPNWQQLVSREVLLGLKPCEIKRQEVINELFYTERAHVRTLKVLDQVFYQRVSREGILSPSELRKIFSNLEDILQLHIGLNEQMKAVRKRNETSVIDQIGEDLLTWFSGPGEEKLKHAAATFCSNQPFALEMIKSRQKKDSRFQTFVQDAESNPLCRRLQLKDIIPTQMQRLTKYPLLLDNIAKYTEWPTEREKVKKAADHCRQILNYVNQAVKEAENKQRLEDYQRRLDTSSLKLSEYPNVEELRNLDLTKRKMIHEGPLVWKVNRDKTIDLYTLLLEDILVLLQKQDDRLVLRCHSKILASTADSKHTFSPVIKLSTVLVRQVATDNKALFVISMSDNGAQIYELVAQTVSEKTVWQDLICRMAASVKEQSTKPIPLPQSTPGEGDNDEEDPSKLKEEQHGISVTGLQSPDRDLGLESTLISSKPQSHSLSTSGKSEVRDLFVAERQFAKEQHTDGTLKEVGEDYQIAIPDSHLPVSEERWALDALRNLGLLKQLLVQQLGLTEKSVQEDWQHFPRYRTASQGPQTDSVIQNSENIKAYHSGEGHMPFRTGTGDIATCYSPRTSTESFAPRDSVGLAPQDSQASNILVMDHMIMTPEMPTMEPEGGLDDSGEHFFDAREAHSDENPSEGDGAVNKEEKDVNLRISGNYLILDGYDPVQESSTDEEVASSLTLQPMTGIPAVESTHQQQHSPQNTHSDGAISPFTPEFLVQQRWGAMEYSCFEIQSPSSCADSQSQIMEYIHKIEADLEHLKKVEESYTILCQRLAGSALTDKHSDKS
UniProt P27540, whole entry, looked up: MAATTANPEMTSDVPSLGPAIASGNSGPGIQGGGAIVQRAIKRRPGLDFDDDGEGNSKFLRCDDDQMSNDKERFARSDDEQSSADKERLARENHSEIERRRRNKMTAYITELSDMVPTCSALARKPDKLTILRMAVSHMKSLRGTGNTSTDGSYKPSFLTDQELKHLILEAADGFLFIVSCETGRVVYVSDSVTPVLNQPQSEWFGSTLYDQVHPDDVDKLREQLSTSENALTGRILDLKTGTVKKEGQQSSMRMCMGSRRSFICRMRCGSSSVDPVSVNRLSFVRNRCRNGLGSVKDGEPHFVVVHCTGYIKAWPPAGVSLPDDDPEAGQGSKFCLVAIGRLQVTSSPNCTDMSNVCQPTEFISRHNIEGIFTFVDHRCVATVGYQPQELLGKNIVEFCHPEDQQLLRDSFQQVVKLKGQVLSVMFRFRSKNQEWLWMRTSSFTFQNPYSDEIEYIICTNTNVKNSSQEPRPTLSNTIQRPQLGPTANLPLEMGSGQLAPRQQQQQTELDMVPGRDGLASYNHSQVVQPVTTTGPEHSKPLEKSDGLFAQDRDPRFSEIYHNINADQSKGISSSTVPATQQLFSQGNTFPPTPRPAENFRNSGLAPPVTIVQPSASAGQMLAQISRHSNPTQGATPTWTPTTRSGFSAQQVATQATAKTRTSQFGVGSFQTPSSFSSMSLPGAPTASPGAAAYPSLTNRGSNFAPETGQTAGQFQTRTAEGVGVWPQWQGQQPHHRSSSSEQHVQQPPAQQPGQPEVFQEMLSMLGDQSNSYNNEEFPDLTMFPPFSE
UniProt Q8N264: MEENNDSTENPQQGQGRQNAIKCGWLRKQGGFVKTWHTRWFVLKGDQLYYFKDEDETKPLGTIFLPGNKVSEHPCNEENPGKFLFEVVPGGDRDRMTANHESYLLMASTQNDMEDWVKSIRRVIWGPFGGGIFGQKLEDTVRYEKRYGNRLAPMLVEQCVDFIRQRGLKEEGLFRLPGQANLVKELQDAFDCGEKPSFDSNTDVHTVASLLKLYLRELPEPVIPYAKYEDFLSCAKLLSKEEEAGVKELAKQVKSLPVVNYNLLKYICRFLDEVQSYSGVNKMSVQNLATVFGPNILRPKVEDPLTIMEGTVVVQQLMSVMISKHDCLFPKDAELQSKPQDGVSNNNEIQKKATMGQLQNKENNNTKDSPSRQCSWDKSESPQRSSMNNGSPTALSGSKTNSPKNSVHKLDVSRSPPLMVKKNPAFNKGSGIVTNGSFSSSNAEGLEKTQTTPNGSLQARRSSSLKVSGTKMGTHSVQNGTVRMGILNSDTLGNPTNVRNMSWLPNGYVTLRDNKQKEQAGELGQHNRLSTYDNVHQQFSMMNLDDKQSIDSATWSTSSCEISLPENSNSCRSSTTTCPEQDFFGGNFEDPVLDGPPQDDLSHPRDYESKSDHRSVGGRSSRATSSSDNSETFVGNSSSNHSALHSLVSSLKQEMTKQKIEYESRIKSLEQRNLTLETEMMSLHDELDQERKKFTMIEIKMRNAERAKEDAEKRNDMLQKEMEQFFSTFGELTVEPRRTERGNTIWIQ
UniProt Q96B67: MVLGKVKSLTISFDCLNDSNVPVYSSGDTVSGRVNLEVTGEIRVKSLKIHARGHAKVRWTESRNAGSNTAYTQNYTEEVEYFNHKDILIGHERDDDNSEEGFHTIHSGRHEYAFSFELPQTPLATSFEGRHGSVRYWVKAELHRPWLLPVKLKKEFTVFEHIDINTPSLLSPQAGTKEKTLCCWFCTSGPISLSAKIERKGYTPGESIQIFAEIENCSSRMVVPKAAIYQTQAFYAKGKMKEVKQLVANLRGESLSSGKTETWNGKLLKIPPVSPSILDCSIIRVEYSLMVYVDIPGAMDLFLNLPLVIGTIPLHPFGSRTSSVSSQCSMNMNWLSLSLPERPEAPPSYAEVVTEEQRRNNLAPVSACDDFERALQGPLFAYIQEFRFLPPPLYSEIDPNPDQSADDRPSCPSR
UniProt Q9Y576: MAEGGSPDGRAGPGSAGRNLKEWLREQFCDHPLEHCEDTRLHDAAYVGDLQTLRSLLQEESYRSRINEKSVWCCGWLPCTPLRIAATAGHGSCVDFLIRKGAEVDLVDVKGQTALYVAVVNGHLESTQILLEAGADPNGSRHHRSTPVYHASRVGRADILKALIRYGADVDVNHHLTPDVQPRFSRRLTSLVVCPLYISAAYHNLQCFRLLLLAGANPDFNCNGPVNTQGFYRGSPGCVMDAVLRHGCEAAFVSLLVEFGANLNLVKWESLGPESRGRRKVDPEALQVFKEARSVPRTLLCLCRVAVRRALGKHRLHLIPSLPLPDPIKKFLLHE
UniProt P02749: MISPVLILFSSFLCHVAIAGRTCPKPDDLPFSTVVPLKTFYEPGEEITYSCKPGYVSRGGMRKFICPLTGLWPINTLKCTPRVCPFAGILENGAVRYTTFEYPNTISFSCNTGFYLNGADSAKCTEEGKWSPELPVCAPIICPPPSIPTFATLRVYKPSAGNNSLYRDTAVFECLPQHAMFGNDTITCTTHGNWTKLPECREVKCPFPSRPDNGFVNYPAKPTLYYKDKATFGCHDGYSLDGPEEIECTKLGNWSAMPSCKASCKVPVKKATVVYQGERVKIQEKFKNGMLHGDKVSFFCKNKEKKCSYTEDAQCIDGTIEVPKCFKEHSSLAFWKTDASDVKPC

The other results are listed elsewhere or left out.

Assay in all cases: log2 fold change, soluble protein after heating vs DMSO (PISA); higher = thermal stabilisation; K562 lysate, 10 uM; active = over 0.2 and 3.5 SD of the protein, either way, in both replicates (recomputed)
Compound in one assay: O=C(CCCCCCC(=O)Nc1ccccc1)NO [vorinostat]
An outline of the steps: (§1)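 The values are log-two fold changes in thermal stability compared with solvent controls and come from duplicates. They were obtained by TMTpro 16plex LC-MS/MS, with channel sums equalised, on the supernatant after 21,000xg for 90 min. That supernatant came from crude K562 extract at 1 mg/mL protein treated with 10 μM compound for 30 min, heated for 3 min across 48°C-58°C, pooled and brought to 0.5% NP-40 at 4°C.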

Compound in another assay: O=C(O)c1ccc2c(c1)nc(Nc1cccc(Cl)c1)c1ccncc12 [silmitasertib]
An outline of the steps:
as §1

Compound in assay [1]: O=C1NC(=O)C(c2cnc3ccccn23)=C1c1cn2c3c(cc(F)cc13)CN(C(=O)N1CCCCC1)CC2
In short, it runs like this:
as §1

Compound in the next assay: c1cn2cc(-c3ccc4cn[nH]c4c3)nc(Nc3ccc(N4CCOCC4)cc3)c2n1 [entospletinib]
An outline of the steps: as §1

Compound in assay [2]: NCC(=O)Nc1ccc(-n2nc(C(F)(F)F)cc2-c2ccc3c(ccc4ccccc43)c2)cc1
An outline of the steps: as §1

On to AP5B1 (UniProt Q2VPB7), for which the log2 fold change in the assay with vorinostat was inactive: -0.062; with silmitasertib, inactive: 0.044; in assay [1], inactive: -0.094; with entospletinib, inactive: 0.022.
As to APBA1 (UniProt Q02410), the log2 fold change in the assay with vorinostat was inactive: -0.227; in the assay with silmitasertib, inactive: 0.045; in assay [1], inactive: -0.076; in the assay with entospletinib it was inactive: -0.072.
In the case of ARHGAP39 isoform 2 (UniProt Q9C0H5), the log2 fold change in assay [1] is inactive: 0.115.
ARHGAP28 (UniProt Q9P2N2): the values for the log2 fold change with vorinostat and with silmitasertib were inactive: 0.048 and inactive: -0.034, respectively.
In the case of API5 isoform 1 (UniProt Q9BZZ5), the log2 fold change in assay [1] is inactive: -0.124.
Regarding APOL1 isoform 2 (UniProt O14791), the log2 fold change with entospletinib is inactive: 0.086.
Take ARMC8 isoform 6 (UniProt Q8IUR7): the values for the log2 fold change with vorinostat and with silmitasertib were inactive: 0.037 and inactive: 0.005, respectively.
In the case of ARL6 isoform 2 (UniProt Q9H0F7), the log2 fold change with vorinostat is inactive: -0.237; with silmitasertib, inactive: 0.104; in assay [1], inactive: -0.185.
As to ARHGEF12 isoform 2 (UniProt Q9NZN5), the log2 fold change in assay [1] was inactive: 0.074; in the assay with entospletinib it was inactive: 0.068.
For the target ARNT (UniProt P27540), the log2 fold change was inactive: 0.051 in assay [2]; inactive: -0.07 with vorinostat; inactive: -0.001 in the assay with silmitasertib; inactive: -0.005 in assay [1]; inactive: -0.02 in the assay with entospletinib.
ARHGEF16 (UniProt Q5VV41): the log2 fold change with vorinostat was inactive: -0.182; with silmitasertib it was inactive: 0.039; with entospletinib, inactive: 0.175.
As for ARHGAP24 (UniProt Q8N264), the log2 fold change in assay [2] was inactive: 0.09; in the assay with vorinostat, inactive: -0.026; with silmitasertib it was inactive: -0.024; in the assay with entospletinib, inactive: 0.016.
Regarding AP5S1 (UniProt Q9NUS5), the log2 fold change was inactive: 0.075 in the assay with vorinostat, inactive: -0.299 with silmitasertib, inactive: 0.044 in assay [1] and inactive: 0.199 with entospletinib.
As for ARHGEF2 (UniProt V9GYF0), the values for the log2 fold change (in assay [2]; in the assay with entospletinib) were inactive: 0.157 and inactive: 0.081, respectively.
For ARID2 (UniProt Q68CP9), the log2 fold change in assay [2] was inactive: 0.07; in assay [1], inactive: 0.025; with entospletinib it was inactive: -0.041.
Take ARMC10 isoform 2 (UniProt Q8N2F6): the log2 fold change with entospletinib was inactive: -0.254.
On to ARRDC3 (UniProt Q96B67), for which the log2 fold change with vorinostat was inactive: 0.39; with silmitasertib, inactive: -0.003.
Regarding ARHGEF40 (UniProt Q8TER5), the values for the log2 fold change with vorinostat and in the assay with silmitasertib were inactive: -0.096 and inactive: -0.009, respectively.
On to APH1A (UniProt Q96BI3), for which the log2 fold change is inactive: 0.098 with vorinostat, inactive: -0.061 in the assay with silmitasertib, inactive: -0.017 in assay [1] and inactive: 0.01 with entospletinib.
Regarding ARSK (UniProt Q6UWY0), the log2 fold change in assay [2] is inactive: 0.167; in the assay with vorinostat it was inactive: 0.14; in the assay with silmitasertib it was inactive: -0.005; with entospletinib, inactive: -0.099.
ARAP3 (UniProt Q8WWN8): the values for the log2 fold change with vorinostat, in the assay with silmitasertib and with entospletinib were inactive: -0.336, inactive: 0.062 and inactive: 0.09, respectively.
As to APP (UniProt P05067), the log2 fold change in the assay with vorinostat is inactive: 0.086; in the assay with silmitasertib it was inactive: 0.086; in assay [1], inactive: -0.067; in the assay with entospletinib it was inactive: 0.209.
For ASB1 (UniProt Q9Y576), the log2 fold change in assay [2] was inactive: -0.151; in assay [1], inactive: -0.027; with entospletinib it was inactive: 0.048.
Turning to APOD (UniProt P05090), the log2 fold change in assay [1] was inactive: 0.368; in the assay with entospletinib, inactive: 0.033.
Regarding APOH (UniProt P02749), in assay [1], the log2 fold change was inactive: 0.016.
With ARMCX5 (UniProt Q6P1M9), the log2 fold change in assay [2] is inactive: -0.233; with vorinostat, inactive: 0.102; in the assay with silmitasertib it was inactive: 0.013; with entospletinib, inactive: 0.088.
